# Measurements from the supplement of paper PMC4635364.
# Structures can show the parent of a compound that is named as a salt. This is one part of the list. Single values are uncertain here, since repeats match poorly.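 Human fetal ventral-midbrain neural progenitor line ReNCell VM, differentiated without mitogens. Images stained for doublecortin (early neurons) or tyrosine hydroxylase (dopaminergic neurons) were scored by blinded raters against untreated wells (0 = no change). Repeats and both raters were averaged, and compounds averaging 2 or higher were picked as hits for retesting.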 Where a SMILES comes first, the peptide text is derived from it.
# Assays:
# ReNCell VM [1] = assay: neuronal differentiation score (DCX+ cell fraction vs untreated, manual image score) (score (-3 to 3)); higher = more neuronal differentiation; conditions: 2 uM, 2 weeks
# ReNCell VM [2] = assay: dopaminergic neuron differentiation score (TH+ cell fraction vs untreated, manual image score) (score (0 to 3)); higher = more TH+ dopaminergic neuron differentiation; conditions: 2 uM, 4 weeks, BDNF 10 ng/ml + GDNF 10 ng/ml
smiles,measurement,setting,value
CN(Cc1cnc2nc(N)nc(N)c2n1)c1ccc(C(=O)NC(CCC(=O)O)C(=O)O)cc1 (racemic),neuronal differentiation score,ReNCell VM [1]; library: Spectrum,inactive: 0
same,dopaminergic neuron differentiation score,ReNCell VM [2]; library: Spectrum,inactive: 0
O=C(O)c1ccccc1Nc1ccccc1,neuronal differentiation score,ReNCell VM [1]; library: Spectrum,inactive: 0
same,dopaminergic neuron differentiation score,ReNCell VM [2]; library: Spectrum,inactive: 0
COc1cc(COc2cc(N)c(Cl)cc2C(=O)CCC2CCN(CCNS(C)(=O)=O)CC2)cc(OC)c1,neuronal differentiation score,ReNCell VM [1]; library: Tocriscreen,inactive: 0
same,dopaminergic neuron differentiation score,ReNCell VM [2]; library: Tocriscreen,inactive: 0
"CCCn1c(=O)c2[nH]c(C3CCCC3)nc2n(CCC)c1=O [8-Cyclopentyl-1,3-dipropylxanthine]",neuronal differentiation score,ReNCell VM [1]; library: LOPAC,inactive: -1
same,dopaminergic neuron differentiation score,ReNCell VM [2]; library: LOPAC,inactive: 0
Nc1nc2[nH]cc(CCc3ccc(C(=O)N[C@@H](CCC(=O)O)C(=O)O)cc3)c2c(=O)[nH]1,neuronal differentiation score,ReNCell VM [1]; library: Spectrum,inactive: 0
same,dopaminergic neuron differentiation score,ReNCell VM [2]; library: Spectrum,inactive: 0
C#C[C@]1(O)CC[C@H]2[C@@H]3CCC4=Cc5oncc5C[C@]4(C)[C@H]3CC[C@@]21C,neuronal differentiation score,ReNCell VM [1]; library: Spectrum,inactive: 0
same,dopaminergic neuron differentiation score,ReNCell VM [2]; library: Spectrum,inactive: 0
CCN(CC)CC#CCOC(=O)C(O)(c1ccccc1)C1CCCCC1 (configuration not stated) [Oxybutynin Chloride],neuronal differentiation score,ReNCell VM [1]; library: LOPAC,inactive: 0
same,dopaminergic neuron differentiation score,ReNCell VM [2]; library: LOPAC,inactive: 0
CO[C@H]1/C=C/O[C@@]2(C)Oc3c(C)c(O)c4c(c3C2=O)C2=NC3(CCN(CC(C)C)CC3)NC2=C(NC(=O)/C(C)=C\C=C\[C@H](C)[C@H](O)[C@@H](C)[C@@H](O)[C@@H](C)[C@H](OC(C)=O)[C@@H]1C)C4=O [Rifabutin],neuronal differentiation score,ReNCell VM [1]; library: Prestwick,inactive: 0
same,dopaminergic neuron differentiation score,ReNCell VM [2]; library: Prestwick,inactive: 0
CC(C)Nc1ncccn1,neuronal differentiation score,ReNCell VM [1]; library: Spectrum,inactive: 0
same,dopaminergic neuron differentiation score,ReNCell VM [2]; library: Spectrum,inactive: 0
CC(C(=O)O)c1ccc(C(=O)c2cccs2)cc1 (configuration not stated) [Suprofen],neuronal differentiation score,ReNCell VM [1]; library: Prestwick,inactive: 0
same,dopaminergic neuron differentiation score,ReNCell VM [2]; library: Prestwick,inactive: 0
C[N+](C)(C)C[C@H](O)CC(=O)[O-],neuronal differentiation score,ReNCell VM [1]; library: Spectrum,inactive: 0
same,dopaminergic neuron differentiation score,ReNCell VM [2]; library: Spectrum,inactive: 0
N#Cc1ccc(NCCNCC(=O)N2CCC[C@H]2C#N)nc1 [NVP DPP 728 dihydrochloride],neuronal differentiation score,ReNCell VM [1]; library: Tocriscreen,inactive: 0
same,dopaminergic neuron differentiation score,ReNCell VM [2]; library: Tocriscreen,inactive: 0
CCN(CC)Cc1cc(Nc2ccnc3cc(Cl)ccc23)ccc1O [Amodiaquin dihydrochloride dihydrate],neuronal differentiation score,ReNCell VM [1]; library: Prestwick,inactive: 0
same,dopaminergic neuron differentiation score,ReNCell VM [2]; library: Prestwick,inactive: 0
COc1ccc(CC2c3cc(OC)c(OC)cc3CC[N+]2(C)CCC(=O)OCCCCCOC(=O)CC[N+]2(C)CCc3cc(OC)c(OC)cc3C2Cc2ccc(OC)c(OC)c2)cc1OC (configuration not stated),neuronal differentiation score,ReNCell VM [1]; library: Spectrum,inactive: 0
same,dopaminergic neuron differentiation score,ReNCell VM [2]; library: Spectrum,inactive: 0
"Cn1c(=O)[nH]c2ncn(C)c2c1=O [1,7-Dimethylxanthine]",neuronal differentiation score,ReNCell VM [1]; library: LOPAC,inactive: 0
same,dopaminergic neuron differentiation score,ReNCell VM [2]; library: LOPAC,inactive: 0
CCN(CC)CCCCNc1ncc2cc(-c3c(Cl)cccc3Cl)c(NC(=O)NC(C)(C)C)nc2n1,neuronal differentiation score,ReNCell VM [1]; library: Tocriscreen,inactive: 0
same,dopaminergic neuron differentiation score,ReNCell VM [2]; library: Tocriscreen,inactive: 0
Nc1ccc(S(=O)(=O)Nc2ncccn2)cc1,neuronal differentiation score,ReNCell VM [1]; library: Spectrum,inactive: 0
same,dopaminergic neuron differentiation score,ReNCell VM [2]; library: Spectrum,inactive: 0
O=C(O)[C@H]1O[C@@H](Oc2cc3oc(-c4ccccc4)cc(=O)c3c(O)c2O)[C@H](O)[C@@H](O)[C@@H]1O,neuronal differentiation score,ReNCell VM [1]; library: Spectrum,inactive: 0
same,dopaminergic neuron differentiation score,ReNCell VM [2]; library: Spectrum,inactive: 0
COc1ccc(C(=O)c2ccccc2O)c(O)c1 [Dioxybenzone],neuronal differentiation score,ReNCell VM [1]; library: Prestwick,inactive: 0
same,dopaminergic neuron differentiation score,ReNCell VM [2]; library: Prestwick,inactive: 0
COCC(=O)Nc1c(I)c(C(=O)NCC(O)CO)c(I)c(C(=O)N(C)CC(O)CO)c1I (configuration not stated) [Iopromide],neuronal differentiation score,ReNCell VM [1]; library: Prestwick,inactive: 0
same,dopaminergic neuron differentiation score,ReNCell VM [2]; library: Prestwick,inactive: 0
CC1(C)O[C@@H]2C[C@H]3[C@@H]4C[C@H](F)C5=CC(=O)C=C[C@]5(C)[C@H]4[C@@H](O)C[C@]3(C)[C@]2(C(=O)CO)O1,neuronal differentiation score,ReNCell VM [1]; library: Spectrum,inactive: 0
same,dopaminergic neuron differentiation score,ReNCell VM [2]; library: Spectrum,inactive: 0
COc1ccc(Nc2nccc(NCCO)n2)cc1 [Cardiogenol C hydrochloride],neuronal differentiation score,ReNCell VM [1]; library: Tocriscreen,inactive: 0
same,dopaminergic neuron differentiation score,ReNCell VM [2]; library: Tocriscreen,inactive: 1
CC(C)(C)NC[C@H](O)COc1nsnc1N1CCOCC1,neuronal differentiation score,ReNCell VM [1]; library: Spectrum,inactive: 0
same,dopaminergic neuron differentiation score,ReNCell VM [2]; library: Spectrum,inactive: 0
CN(C(=O)c1c(O)c2ccccc2n(C)c1=O)c1ccccc1 [Linomide],neuronal differentiation score,ReNCell VM [1]; library: Tocriscreen,inactive: 0
same,dopaminergic neuron differentiation score,ReNCell VM [2]; library: Tocriscreen,inactive: 0
O=C(c1ccc(F)cc1)C1CCN(CCn2c(=O)[nH]c3ccccc3c2=O)CC1 [Ketanserin tartrate hydrate],neuronal differentiation score,ReNCell VM [1]; library: Prestwick,inactive: 0
same,dopaminergic neuron differentiation score,ReNCell VM [2]; library: Prestwick,inactive: 0
CN(C)CCOC(c1ccccc1)c1ccccc1,neuronal differentiation score,ReNCell VM [1]; library: Spectrum,inactive: 0
same,dopaminergic neuron differentiation score,ReNCell VM [2]; library: Spectrum,inactive: 0
CC1(C)CCC(C)(C)c2cc(C(=O)Nc3ccc(C(=O)O)cc3)ccc21,neuronal differentiation score,ReNCell VM [1]; library: Tocriscreen,inactive: 0
same,dopaminergic neuron differentiation score,ReNCell VM [2]; library: Tocriscreen,inactive: 0
O=C(CCCl)NCc1ccccc1,neuronal differentiation score,ReNCell VM [1]; library: Spectrum,inactive: 0
same,dopaminergic neuron differentiation score,ReNCell VM [2]; library: Spectrum,inactive: 0
NC(=O)CC[C@H](NC(=O)[C@@H](N)CO)C(=O)O (H-Ser-Gln-OH),neuronal differentiation score,ReNCell VM [1]; library: Spectrum,inactive: 0
same,dopaminergic neuron differentiation score,ReNCell VM [2]; library: Spectrum,inactive: 0
CCOCCOc1ccccc1C(N)=O,neuronal differentiation score,ReNCell VM [1]; library: Spectrum,inactive: 1
same,dopaminergic neuron differentiation score,ReNCell VM [2]; library: Spectrum,inactive: 0
CC(=O)OCC(=O)[C@@]1(OC(C)=O)[C@@H](C)C[C@H]2[C@@H]3C[C@H](F)C4=CC(=O)C=C[C@]4(C)[C@@]3(F)[C@@H](O)C[C@@]21C [Diflorasone Diacetate],neuronal differentiation score,ReNCell VM [1]; library: Prestwick,inactive: 0
same,dopaminergic neuron differentiation score,ReNCell VM [2]; library: Prestwick,inactive: 0
Cc1ccc(Nc2c(F)cccc2Cl)c(CC(=O)O)c1,neuronal differentiation score,ReNCell VM [1]; library: Spectrum,inactive: 0
same,dopaminergic neuron differentiation score,ReNCell VM [2]; library: Spectrum,inactive: 0
CC1(C)[C@@H](O)CC[C@]2(C)[C@H]3C(=O)C=C4[C@@H]5C[C@@](C)(C(=O)O)CC[C@]5(C)CC[C@@]4(C)[C@]3(C)CC[C@@H]12,neuronal differentiation score,ReNCell VM [1]; library: Spectrum,inactive: 0
same,dopaminergic neuron differentiation score,ReNCell VM [2]; library: Spectrum,inactive: 0
CC(C)(C)C(=O)C(Oc1ccc(Cl)cc1)n1ccnc1 (configuration not stated),neuronal differentiation score,ReNCell VM [1]; library: Spectrum,inactive: 0
same,dopaminergic neuron differentiation score,ReNCell VM [2]; library: Spectrum,inactive: 0
CC[C@H](C)C(=O)O[C@H]1C[C@H](O)C=C2C=C[C@H](C)[C@H](CC[C@@H](O)C[C@@H](O)CC(=O)O)[C@H]21,neuronal differentiation score,ReNCell VM [1]; library: Spectrum,inactive: 0
same,dopaminergic neuron differentiation score,ReNCell VM [2]; library: Spectrum,active: 2
O=c1n(CCCN2CCN(c3cccc(Cl)c3)CC2)nc2ccccn12,neuronal differentiation score,ReNCell VM [1]; library: Spectrum,inactive: 1
same,dopaminergic neuron differentiation score,ReNCell VM [2]; library: Spectrum,inactive: 0
C[C@H](N[C@@H](CCc1ccccc1)C(=O)O)C(=O)N1Cc2ccccc2C[C@H]1C(=O)O,neuronal differentiation score,ReNCell VM [1]; library: Spectrum,inactive: 0
same,dopaminergic neuron differentiation score,ReNCell VM [2]; library: Spectrum,inactive: 0
CCN(CC)CCNC(=O)c1cc(Cl)c(N)cc1OC,neuronal differentiation score,ReNCell VM [1]; library: Spectrum,inactive: 1
same,dopaminergic neuron differentiation score,ReNCell VM [2]; library: Spectrum,inactive: 0
Fc1ccc(C(c2ccc(F)cc2)N2CCN(C/C=C/c3ccccc3)CC2)cc1,neuronal differentiation score,ReNCell VM [1]; library: Spectrum,inactive: 0
same,dopaminergic neuron differentiation score,ReNCell VM [2]; library: Spectrum,inactive: 0
"c1ccc(CN2CCC3(CCCc4ccccc43)CC2)cc1 [L-687,384 hydrochloride]",neuronal differentiation score,ReNCell VM [1]; library: LOPAC,inactive: 0
same,dopaminergic neuron differentiation score,ReNCell VM [2]; library: LOPAC,inactive: 0
"CC(=O)C(C)=O [2,3-Butanedione]",neuronal differentiation score,ReNCell VM [1]; library: LOPAC,inactive: 0
same,dopaminergic neuron differentiation score,ReNCell VM [2]; library: LOPAC,inactive: 0
c1cnc(N2CCN(Cc3ccc4c(c3)OCO4)CC2)nc1 [Piribedil maleate],neuronal differentiation score,ReNCell VM [1]; library: LOPAC,inactive: 1
same,dopaminergic neuron differentiation score,ReNCell VM [2]; library: LOPAC,inactive: 0
COc1cc(C)c(/C=C/C(C)=C/C=C/C(C)=C/C(=O)O)c(C)c1C [Acitretin],neuronal differentiation score,ReNCell VM [1]; library: Prestwick,inactive: 0
same,dopaminergic neuron differentiation score,ReNCell VM [2]; library: Prestwick,inactive: 0
"COc1cc(C2=NC(=Cc3ccccc3)C(=O)O2)cc(OC)c1OC [4-benzylidene-2-(3,4,5-trimethoxy-phenyl)-4h-oxazol-5-one]",neuronal differentiation score,ReNCell VM [1]; library: Natural,inactive: 0
same,dopaminergic neuron differentiation score,ReNCell VM [2]; library: Natural,inactive: 0
NC(=O)NCCC[C@H](N)C(=O)O,neuronal differentiation score,ReNCell VM [1]; library: Spectrum,inactive: 0
same,dopaminergic neuron differentiation score,ReNCell VM [2]; library: Spectrum,inactive: 0
O=C(O)CSCC(=O)NC1CCSC1=O (configuration not stated),neuronal differentiation score,ReNCell VM [1]; library: Spectrum,inactive: 0
same,dopaminergic neuron differentiation score,ReNCell VM [2]; library: Spectrum,inactive: 0
Cc1ccc(NC2=CC(=O)c3sc(C)nc3C2=O)cc1 [Ryuvidine],neuronal differentiation score,ReNCell VM [1]; library: Tocriscreen,inactive: 0
same,dopaminergic neuron differentiation score,ReNCell VM [2]; library: Tocriscreen,inactive: 0
Cc1nc(-c2ccc(OCC(C)C)c(C#N)c2)sc1C(=O)O,neuronal differentiation score,ReNCell VM [1]; library: Spectrum,inactive: 0
same,dopaminergic neuron differentiation score,ReNCell VM [2]; library: Spectrum,inactive: 0
"COc1ccc([C@H]2O[C@@H](c3ccc(OC)c(OC)c3)[C@H](C)[C@@H]2C)cc1OC [2,5-Bis-(3,4-dimethoxy-phenyl)-3,4-dimethyl-tetrahydro-furan]",neuronal differentiation score,ReNCell VM [1]; library: Natural,inactive: 0
same,dopaminergic neuron differentiation score,ReNCell VM [2]; library: Natural,inactive: 0
S=C1SCN(Cc2ccccc2)CN1Cc1ccccc1,neuronal differentiation score,ReNCell VM [1]; library: Spectrum,inactive: 0
same,dopaminergic neuron differentiation score,ReNCell VM [2]; library: Spectrum,inactive: 0
CC[C@H](CC[C@@H](C)[C@H]1CC[C@H]2[C@@H]3CC=C4C[C@@H](O)CC[C@]4(C)[C@H]3CC[C@]12C)C(C)C [beta-SITOSTEROL],neuronal differentiation score,ReNCell VM [1]; library: Spectrum,inactive: 0
same,dopaminergic neuron differentiation score,ReNCell VM [2]; library: Spectrum,inactive: 0

# Reprinted at random: 2 records from the list
smiles,measurement,setting,value
S=C1SCN(Cc2ccccc2)CN1Cc1ccccc1,neuronal differentiation score,ReNCell VM [1]; library: Spectrum,inactive: 0
C[C@H](N[C@@H](CCc1ccccc1)C(=O)O)C(=O)N1Cc2ccccc2C[C@H]1C(=O)O,dopaminergic neuron differentiation score,ReNCell VM [2]; library: Spectrum,inactive: 0
